In publication PMC13186993:
Like-named read-outs stand apart in the source and are kept apart here. These are yes or no findings as the source states them, for the method shown. In cells and extracts the contact can be indirect. A yes stands for co-enrichment or nearness to the bait. Other partners may have been found. Where a sequence is shown, tags or fusion partners need not be part of it.

Protein sequences, listed by entry. Tags and fused reporters are not part of them. Lines headed by an entry give the natural chain unless they say otherwise; changes in a name come on top.
UniProt A0A0G2Y717: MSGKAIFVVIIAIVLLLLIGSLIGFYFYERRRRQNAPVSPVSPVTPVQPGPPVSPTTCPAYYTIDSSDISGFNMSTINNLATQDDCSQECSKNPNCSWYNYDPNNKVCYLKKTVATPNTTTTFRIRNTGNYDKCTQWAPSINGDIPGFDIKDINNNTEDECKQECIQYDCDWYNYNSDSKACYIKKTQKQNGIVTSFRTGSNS

T1: mimivirus L323, endogenously tagged with C-terminal 3xHA (Acanthamoeba polyphaga mimivirus)
T1 sequence: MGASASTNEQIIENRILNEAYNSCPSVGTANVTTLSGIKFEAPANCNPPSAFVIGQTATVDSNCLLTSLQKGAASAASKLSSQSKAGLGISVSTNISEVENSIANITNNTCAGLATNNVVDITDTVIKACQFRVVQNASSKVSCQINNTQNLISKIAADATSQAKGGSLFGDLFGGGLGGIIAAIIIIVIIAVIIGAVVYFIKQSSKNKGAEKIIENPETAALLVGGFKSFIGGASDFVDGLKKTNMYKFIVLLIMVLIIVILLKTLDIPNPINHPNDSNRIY

B1: mimivirus R557 (protein, UniProt A0A0G2Y5V0 1-160)
chain: MSQVTGFDQSNVAQYSSFDPLGSLEHAGSNLGNFIQRNNPFPSLSQSASHTFDDVRSDSGKIFDELKSEADKFYDDAKHGLSDIDYRDFYASDPGNTVLRASMQSPYLNSYMDINNAPNVIPLQAPPIVTNRNSKDYNILFVVVILLLLFVAWRCYVNKR
B2: mimivirus R486 (protein, UniProt E3VYF9 1-223)
chain: MSQTAIIIWIVVIIILLVLGGLGAYFFYSRYRHRKNIPPTPINPPSSITPIQPINPPSSITPIQPSGPPSGGNHPIPASCPAYQLVNNKAITLVPLPADTSNVKNAQDCQNLCTQNPDCYFYNYVGLFDGCSLMQGTVDNNVMTGFAIRGSEDGCPKWARYNTSIQGFNTGNPSNVESEEKCQQLCQQNSSCDWYTYDIGKKTCTLNKAIDFNTSTLGIKMPH
B3: mimivirus L65 (protein, UniProt E3VY52 1-355)
chain: MQKKVLFNDIVFVCFPITDNGSIIISDIGYSDDGYNRPTGRQGTIENGDPYRITVPAGYSYTNKNVQNGNMIRLVRVNDSKNGCWYNGSGDGWLEIRDYVGPDWRADWTVQIINPANNDNSLYYGQHFRLMNRAQVENPTFQGPSDFASIALWGSNNTNNSVMMLLNGPLDTAKLECCKDNPIFTQPDYCANYRGTTCSGQCDDILSNYCAQVTTTDPKCGCLLPASFYTQNSAIGPPECIDDRCVDTNSYRKSTQCHPNCQIVDCDININDFNGTNINKIVYEQECGSKSTPNGPNGPTPTPSNGPNGPTPVPGIPPANGSSTSFFSRYGLWIIIAIILLIVIISAVGIYFYLR
B4: mimivirus L778 (protein, UniProt A0A0G2Y8Z7 1-257)
chain: MSAIRYGDNVFITLPRLSTPMIFNGLVPHYTKPNQYEYVPILSSGSIANGDSYIIEPININNSNTALNPQSVFRLKQVSQNKYLYDNNGIVYLGNDTDNKANWSLKPVNLNATTIDYNQEFRLVNQGTGNNAVFSTINNVTMITSKYNDTTNNSIFKFLKGPFTYAQSQCCQGNILYTRPNMCGIYKQGSSVCHTIPSSQSNYPSYTTSMVGSTQSTTPVGSNPPTHRSIDKWYIIGGIFWVIVLIILVIFIIWKLK

Key:
[1] = target: T1, mimivirus L323, endogenously tagged with C-terminal 3xHA (Acanthamoeba polyphaga mimivirus); experiment: affinity purification with mass spectrometry; A. castellanii infected with mimivirus expressing the HA-tagged bait (MOI 10), harvested 6 hpi, cross-linked with 4% formaldehyde, lysed in RIPA buffer pH 8.0, anti-HA magnetic beads; label-free MS against cells infected with wild-type mimivirus, biological triplicates
[2] = target: T1, mimivirus L323, endogenously tagged with C-terminal 3xHA (Acanthamoeba polyphaga mimivirus); experiment: as above; remark: listed apart in the source

| Molecule | binding [1] | binding [2] |
| --- | --- | --- |
| mimivirus L775 (from UniProt A0A0G2Y717) | binds | – |
| B1 | – | binds |
| B2 | – | binds |
| B3 | – | binds |
| B4 | – | binds |
